# Some of the results follow. Repeats are few or missing, and single values can be far off.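 Imaging used 1,536-well plates; nuclei positive for cleaved PARP by antibody were divided by total DNA-stained nuclei to yield the apoptosis fraction. Doses for screening kept most cells viable, and cell lines differ markedly in resting and induced cleaved-PARP levels.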
# Tested on: COLO829
# Assay: cleaved PARP positive nuclei fraction relative to DMSO control; melanoma cells; higher = more apoptosis
# Conditions: library dose: low library concentration; 72 h
row,SMILES,cleaved PARP positive nuclei fraction [%]
1,"CN(C)S(=O)(=O)c1ccc2c(c1)/C(=C/c1cc3c([nH]1)CCCC3)C(=O)N2 + COc1cc2ncnc(Nc3ccc(Oc4ccccc4)cc3)c2cc1OC [SrcI1] (first compound 0.4 µM, partner dose 2 µM)",57.7
2,"NCC(=O)Nc1ccc(-n2nc(C(F)(F)F)cc2-c2ccc3c(ccc4ccccc43)c2)cc1 + Cn1cc(/C=C2\C(=O)Nc3cccnc32)c2ccccc21 [GW441756] (first compound 1 µM, partner dose 0.4 µM)",137
3,"O=C(Nc1ccccc1)c1cc([N+](=O)[O-])ccc1Cl + Oc1cc(-c2nc(-c3ccccc3)[nH]c2-c2ccncc2)ccc1Cl [L779450] (first compound 2 µM, partner dose 0.2 µM)",100
4,"O=C1NC(=O)/C(=C/c2ccc(-c3ccc(F)cc3O)o2)S1 + c1cc(-c2cnn3cc(-c4ccc(OCCN5CCCCC5)cc4)cnc23)ccn1 [Dorsomorphin] (first compound 1 µM, partner dose 0.4 µM)",67.2
5,"COC(=O)c1sccc1S(=O)(=O)Nc1ccc(Nc2ccccc2)cc1OC + COc1ccc(COc2ccc(Cc3cnc(N)nc3N)cc2OC)cc1 [GW2580] (first compound 1 µM, partner dose 1 µM)",103
6,"COc1cc2c(Oc3ccc4[nH]c(C)cc4c3F)ncnc2cc1OCCCN1CCCC1 [cediranib] + CCN(CC)CCCCNc1ncc2cc(-c3cc(OC)cc(OC)c3)c(NC(=O)NC(C)(C)C)nc2n1 [PD173074] (first compound 0.4 µM, partner dose 0.1 µM)",127
7,"O=C1NC(=O)/C(=C/c2ccc(-c3ccc(F)cc3O)o2)S1 + COc1cc(N2CCC(N3CCN(C)CC3)CC2)ccc1Nc1ncc(Cl)c(Nc2ccccc2S(=O)(=O)C(C)C)n1 [NVP-TAE684] (first compound 1 µM, partner dose 0.08 µM)",129
8,"O=C(O)c1ccc(-c2c[nH]c3ncc(-c4ccccc4)cc23)cc1C1CCCC1 + O=C(O)C(=O)Nc1sc2c(c1C(=O)O)CCNC2 [TCS401] (first compound 0.16 µM, partner dose 1.66667 µM)",153
9,"CN(NC(=O)CC(=O)NN(C)C(=S)c1ccccc1)C(=S)c1ccccc1 + CCN(CC)CCCCNc1ncc2cc(-c3cc(OC)cc(OC)c3)c(NC(=O)NC(C)(C)C)nc2n1 [PD173074] (first compound 0.006 µM, partner dose 0.1 µM)",160
10,"NCC(=O)Nc1ccc(-n2nc(C(F)(F)F)cc2-c2ccc3c(ccc4ccccc43)c2)cc1 + Cc1cc([N+](=O)[O-])ccc1NS(=O)(=O)c1cc(Cl)ccc1Cl [FH535] (first compound 1 µM, partner dose 1 µM)",48.8
11,"COc1ccc(COc2ccc(Cc3cnc(N)nc3N)cc2OC)cc1 + O=S(=O)(c1ccccc1)N(CC(F)(F)F)c1ccc(C(O)(C(F)(F)F)C(F)(F)F)cc1 [T0901317] (first compound 1 µM, partner dose 1.4 µM)",111
12,"O=C(Nc1ccccc1)c1cc([N+](=O)[O-])ccc1Cl + COc1ccc(COc2ccc(Cc3cnc(N)nc3N)cc2OC)cc1 [GW2580] (first compound 2 µM, partner dose 1 µM)",151
13,"NCC(=O)Nc1ccc(-n2nc(C(F)(F)F)cc2-c2ccc3c(ccc4ccccc43)c2)cc1 + COc1ccc(-c2ccc3c(N4CCOCC4)nc(N4C[C@@H](C)O[C@@H](C)C4)nc3n2)cc1CO [KU0063794] (first compound 1 µM, partner dose 0.02 µM)",116
14,"COc1cc2c(Oc3ccc4[nH]c(C)cc4c3F)ncnc2cc1OCCCN1CCCC1 [cediranib] + COc1ccc(-c2ccc3c(N4CCOCC4)nc(N4C[C@@H](C)O[C@@H](C)C4)nc3n2)cc1CO [KU0063794] (first compound 0.4 µM, partner dose 0.02 µM)",65.4
15,"O=S(=O)(c1ccccc1)N(CC(F)(F)F)c1ccc(C(O)(C(F)(F)F)C(F)(F)F)cc1 + CC(C)CCN1c2nc(Nc3cc(F)c(O)c(F)c3)ncc2N(C)C(=O)C1C [BID1870] (first compound 1.4 µM, partner dose 0.2 µM)",137
16,"NCC(=O)Nc1ccc(-n2nc(C(F)(F)F)cc2-c2ccc3c(ccc4ccccc43)c2)cc1 + COc1cc2ncnc(Nc3ccc(Oc4ccccc4)cc3)c2cc1OC [SrcI1] (first compound 1 µM, partner dose 2 µM)",215
17,"NCC(=O)Nc1ccc(-n2nc(C(F)(F)F)cc2-c2ccc3c(ccc4ccccc43)c2)cc1 + O=C1NC(=O)/C(=C/c2ccc(-c3ccc(F)cc3O)o2)S1 [AS252424] (first compound 1 µM, partner dose 1 µM)",135
18,"COc1cc2ncnc(Nc3ccc(Oc4ccccc4)cc3)c2cc1OC + c1cc(-c2cnn3cc(-c4ccc(OCCN5CCCCC5)cc4)cnc23)ccn1 [Dorsomorphin] (first compound 2 µM, partner dose 0.4 µM)",100

# As entered above.
# In cleaved PARP positive nuclei fraction [%], NCC(=O)Nc1ccc(-n2nc(C(F)(F)F)cc2-c2ccc3c(ccc4ccccc43)c2)cc1 + Cn1cc(/C=C2\C(=O)Nc3cccnc32)c2ccccc21 [GW441756] (first compound 1 µM, partner dose 0.4 µM) is listed with 137
# In cleaved PARP positive nuclei fraction [%], O=C(Nc1ccccc1)c1cc([N+](=O)[O-])ccc1Cl + COc1ccc(COc2ccc(Cc3cnc(N)nc3N)cc2OC)cc1 [GW2580] (first compound 2 µM, partner dose 1 µM) is listed with 151

# The list continues:

row,SMILES,cleaved PARP positive nuclei fraction [%]
1,"CCc1ccc(CCOc2ccc(CC3SC(=O)NC3=O)cc2)nc1 (stereo unspecified) [pioglitazone] + COC(=O)c1sccc1S(=O)(=O)Nc1ccc(Nc2ccccc2)cc1OC [GSK0660] (first compound 2 µM, partner dose 1 µM)",88.4
2,"O=C(Nc1ccccc1)c1cc([N+](=O)[O-])ccc1Cl + COc1ccc2c(c1)CCC1C2CCC2(C)C(NCCCCCCN3C(=O)C=CC3=O)CCC12 [U73122] (first compound 2 µM, partner dose 0.4 µM)",104
3,"COc1cc2c(Oc3ccc4[nH]c(C)cc4c3F)ncnc2cc1OCCCN1CCCC1 [cediranib] + O=C1NC(=O)/C(=C/c2ccc(-c3ccc(F)cc3O)o2)S1 [AS252424] (first compound 0.4 µM, partner dose 1 µM)",87.9
4,"O=C(O)c1ccc(-c2c[nH]c3ncc(-c4ccccc4)cc23)cc1C1CCCC1 + CCc1ccc(CCOc2ccc(CC3SC(=O)NC3=O)cc2)nc1 [pioglitazone] (first compound 0.16 µM, partner dose 2 µM)",215
5,"COc1cc2ncnc(Nc3ccc(Oc4ccccc4)cc3)c2cc1OC + Oc1cc(-c2nc(-c3ccccc3)[nH]c2-c2ccncc2)ccc1Cl [L779450] (first compound 2 µM, partner dose 0.2 µM)",41.1
6,"Oc1nc(-c2ccc(C(F)(F)F)cc2)nc2c1CSCC2 + O=c1cc(-c2cccc3c2Sc2ccccc2S3)oc(N2CCOCC2)c1 [KU55933] (first compound 2 µM, partner dose 1 µM)",57.2
7,"COc1ccc(-c2ccc3c(N4CCOCC4)nc(N4C[C@@H](C)O[C@@H](C)C4)nc3n2)cc1CO + O=S(=O)(c1ccccc1)N(CC(F)(F)F)c1ccc(C(O)(C(F)(F)F)C(F)(F)F)cc1 [T0901317] (first compound 0.02 µM, partner dose 1.4 µM)",124
8,"N#Cc1c(O)c2c(-c3ccc(-c4ccccc4O)cc3)csc2[nH]c1=O + Cn1cc(/C=C2\C(=O)Nc3cccnc32)c2ccccc21 [GW441756] (first compound 2 µM, partner dose 0.4 µM)",81.3
9,"NCC(=O)Nc1ccc(-n2nc(C(F)(F)F)cc2-c2ccc3c(ccc4ccccc43)c2)cc1 + O=C(O)C(=O)Nc1sc2c(c1C(=O)O)CCNC2 [TCS401] (first compound 1 µM, partner dose 1.66667 µM)",81.3
10,"NCC(=O)Nc1ccc(-n2nc(C(F)(F)F)cc2-c2ccc3c(ccc4ccccc43)c2)cc1 + CCc1ccc(CCOc2ccc(CC3SC(=O)NC3=O)cc2)nc1 [pioglitazone] (first compound 1 µM, partner dose 2 µM)",158
11,"O=C(Nc1ccccc1)c1cc([N+](=O)[O-])ccc1Cl + CC(C)CCN1c2nc(Nc3cc(F)c(O)c(F)c3)ncc2N(C)C(=O)C1C [BID1870] (first compound 2 µM, partner dose 0.2 µM)",87.1
12,"O=C(O)c1ccc(-c2c[nH]c3ncc(-c4ccccc4)cc23)cc1C1CCCC1 + Oc1cc(-c2nc(-c3ccccc3)[nH]c2-c2ccncc2)ccc1Cl [L779450] (first compound 0.16 µM, partner dose 0.2 µM)",118
13,"CN(C)S(=O)(=O)c1ccc2c(c1)/C(=C/c1cc3c([nH]1)CCCC3)C(=O)N2 + COc1ccc(COc2ccc(Cc3cnc(N)nc3N)cc2OC)cc1 [GW2580] (first compound 0.4 µM, partner dose 1 µM)",119
14,"COc1ccc(COc2ccc(Cc3cnc(N)nc3N)cc2OC)cc1 + c1cc(-c2cnn3cc(-c4ccc(OCCN5CCCCC5)cc4)cnc23)ccn1 [Dorsomorphin] (first compound 1 µM, partner dose 0.4 µM)",80
15,"COc1ccc(-c2ccc3c(N4CCOCC4)nc(N4C[C@@H](C)O[C@@H](C)C4)nc3n2)cc1CO + Oc1cc(-c2nc(-c3ccccc3)[nH]c2-c2ccncc2)ccc1Cl [L779450] (first compound 0.02 µM, partner dose 0.2 µM)",81.2
16,"CCN(CC)CCCCNc1ncc2cc(-c3cc(OC)cc(OC)c3)c(NC(=O)NC(C)(C)C)nc2n1 + Cc1cc([N+](=O)[O-])ccc1NS(=O)(=O)c1cc(Cl)ccc1Cl [FH535] (first compound 0.1 µM, partner dose 1 µM)",104
17,"O=S(=O)(c1ccccc1)N(CC(F)(F)F)c1ccc(C(O)(C(F)(F)F)C(F)(F)F)cc1 + Cc1cc([N+](=O)[O-])ccc1NS(=O)(=O)c1cc(Cl)ccc1Cl [FH535] (first compound 1.4 µM, partner dose 1 µM)",85.3
18,"COc1cc2ncnc(Nc3ccc(Oc4ccccc4)cc3)c2cc1OC + O=C(O)C(=O)Nc1sc2c(c1C(=O)O)CCNC2 [TCS401] (first compound 2 µM, partner dose 1.66667 µM)",83.6

# From the supplement of paper PMC4604168 (melanoma cell lines)
